Data as given in paper PMC6305323.
Results are given in words; binding and its absence hold for the method and conditions named. Binding seen in cells or lysates may run through a third protein. Binding can be weak; no strength is given. Tags and fused reporters may be left off the sequences shown.

By UniProt entry, the sequences of proteins in these tests, tags left out. Where a name states a change or a piece, a line headed by the entry shows the natural chain unless it says otherwise.
UniProt A0A0P0X2F6: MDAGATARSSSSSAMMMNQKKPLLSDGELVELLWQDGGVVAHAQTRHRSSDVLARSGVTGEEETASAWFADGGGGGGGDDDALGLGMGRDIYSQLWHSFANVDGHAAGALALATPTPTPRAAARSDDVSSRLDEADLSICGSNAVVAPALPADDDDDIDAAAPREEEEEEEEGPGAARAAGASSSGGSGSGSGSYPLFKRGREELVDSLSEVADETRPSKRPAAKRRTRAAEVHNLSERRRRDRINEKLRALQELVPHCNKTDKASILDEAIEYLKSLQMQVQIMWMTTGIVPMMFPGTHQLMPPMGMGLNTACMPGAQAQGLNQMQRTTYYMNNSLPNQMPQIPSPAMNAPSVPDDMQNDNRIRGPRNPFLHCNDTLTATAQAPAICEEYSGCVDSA

Target: T1, GFP-SLR1 (rice) (UniProt Q7G7J6)
T1 sequence: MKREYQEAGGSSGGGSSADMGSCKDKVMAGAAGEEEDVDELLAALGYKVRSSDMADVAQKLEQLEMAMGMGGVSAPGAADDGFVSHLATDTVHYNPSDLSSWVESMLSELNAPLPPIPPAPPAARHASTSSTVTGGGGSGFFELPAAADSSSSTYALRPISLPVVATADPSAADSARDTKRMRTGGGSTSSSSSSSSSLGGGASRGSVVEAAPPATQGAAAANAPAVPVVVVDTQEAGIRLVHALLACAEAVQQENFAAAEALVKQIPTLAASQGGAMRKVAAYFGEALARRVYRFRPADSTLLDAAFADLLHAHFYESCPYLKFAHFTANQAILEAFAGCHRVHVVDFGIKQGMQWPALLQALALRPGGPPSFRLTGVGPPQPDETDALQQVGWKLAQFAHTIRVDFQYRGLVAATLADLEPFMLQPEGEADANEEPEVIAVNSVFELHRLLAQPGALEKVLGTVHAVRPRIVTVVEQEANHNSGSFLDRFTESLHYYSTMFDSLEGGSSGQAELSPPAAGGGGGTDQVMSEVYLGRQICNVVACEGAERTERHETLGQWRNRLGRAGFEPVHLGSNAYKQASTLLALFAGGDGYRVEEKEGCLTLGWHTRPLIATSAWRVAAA
Test: co-IP; rice protoplasts co-transformed with 6xMyc- and GFP-tagged constructs, 10 h in the dark at 28°C; IP buffer 25 mM Tris-HCl pH 7.5, 150 mM NaCl, 0.5 % Triton X-100, 1 mM EDTA, 1 mM DTT; GFP or Myc antibody and Protein G agarose beads; western blot with the other antibody

binding: binds
Substance: 6xMyc-OsPIL14 (from UniProt A0A0P0X2F6)
